In PubChem BioAssay AID284 (DTP/NCI, 2004):
The list does not hold the whole screen: it gathers tests that were run many times, whatever their T/C, doses with no T/C, and many T/C values between a quarter and a half above the control. Further doses and runs are listed elsewhere. T/C is the treated group as % of the vehicle group. Some entries give survivors of the animals treated and no T/C: the source files T/C as zero there, which appears to mark a toxic dose or a test without result, not a measured value. Some doses without a T/C left all or most animals alive at the check, yet need not have been tolerated: survival well below the control is almost never listed, so the zero probably covers shortened survival too. Survivors were counted at the toxicity check, usually on the fifth day, unless a day is given; later deaths do not show. Schedule codes are those of the source, read here as Q, the interval in days (D) or hours (H), X, the number of doses. Some schedules carry Z or #; the key to these is not given. Some entries were tested several times; the values are given in rising order. Where survival is the endpoint, the PubChem record calls one and a half times the control and up active, and a quarter to a half above the control has no call in these data; cut-offs in other NCI protocols can differ. Some T/C values are followed by the survivors on the day toxicity was checked, most often the fifth; where none is given, no animal had died by that day.

System: BDF1 mice, L1210/MTX-resistant leukemia ip, survival T/C
Experiment: NCI In Vivo Anticancer Drug Screen. Data for tumor model L1210 Leukemia resistant to Methotrexate; NSC 740 (intraperitoneal) in B6D2F1 (BDF1) mice
Settings: T/C endpoint: mean survival time, higher T/C = longer survival
Protocol: The antitumor activity of compounds was measured in mice bearing transplantable tumors. Survival or tumor size were measured and the results are expressed as the measurement made in the treated group (T) divided by the measurement made in the vehicle treated control group (C). The tumor model used in this assay is L1210 Leukemia resistant to Methotrexate; NSC 740 (intraperitoneal) in B6D2F1 (BDF1) mice

[1] = dose: 20.0 mg/kg/injection, schedule: Q01DX010 (ip), vehicle: saline
[2] = dose: 50.0 mg/kg/injection, schedule: Q01DX Z (ip), vehicle: other
[3] = dose: 100.0 mg/kg/injection, schedule: Q01DX Z (ip), vehicle: other
[4] = dose: 12.5 mg/kg/injection, schedule: Q01DX Z (ip), vehicle: other
[5] = dose: 25.0 mg/kg/injection, schedule: Q01DX Z (ip), vehicle: other
[6] = dose: 8.0 mg/kg/injection, schedule: Q01DX010 (ip), vehicle: saline
[7] = dose: 1.0 mg/kg/injection, schedule: Q01DX Z (ip), vehicle: other
[8] = dose: 2.0 mg/kg/injection, schedule: Q01DX Z (ip), vehicle: other

With `CN(C)C(=S)N=Nc1c(O)[nH]c2ccccc12` the T/C (dose: 25.0 mg/kg/injection, schedule: Q01DX Z (ip), vehicle: carboxymethylcellulose (CMC)) was 133 % of control and the survivor count (dose: 200.0 mg/kg/injection, schedule: Q01DX Z (ip), vehicle: carboxymethylcellulose (CMC)) was 5 of 6.
With `CN(C)c1ccc(/C=C/c2ccnc3ccccc23)cc1` the T/C (dose: 0.62 mg/kg/injection, schedule: Q01DX Z (ip), vehicle: saline) was 125 % of control, the T/C (dose: 1.25 mg/kg/injection, schedule: Q01DX Z (ip), vehicle: saline) was 126 % of control and the survivor count [1] was 6 of 6. For the same compound, the survivor count (dose: 25.0 mg/kg/injection, schedule: Q01DX Z (ip), vehicle: saline) was 6 of 6, the survivor count (dose: 40.0 mg/kg/injection, schedule: Q01DX010 (ip), vehicle: saline) was 6 of 6 and the survivor count (dose: 50.0 mg/kg/injection, schedule: Q01DX Z (ip), vehicle: saline) was 6 of 6. For the same compound, the survivor count (dose: 75.0 mg/kg/injection, schedule: Q01DX Z (ip), vehicle: saline) was 5 of 6 and the survivor count (dose: 100.0 mg/kg/injection, schedule: Q01DX Z (ip), vehicle: saline) was 1 of 6.
`S=c1nc[nH]c2nc[nH]c12` was tested, and the T/C (dose: 10.0 mg/kg/injection, schedule: Q01DX Z (ip), vehicle: alkali diluted with saline) was 125 % of control, the T/C (dose: 24.0 mg/kg/injection, schedule: Q01DX Z (ip), vehicle: carboxymethylcellulose (CMC)) was 130 % of control and the T/C [2] was 92, 98, 106 % of control. For the same compound, the survivor count [2] was 0 of 6 and 2 of 6 and the survivor count [3] was 0 of 6.
`Oc1cc(CN(CCCl)CCCl)c(O)cc1CN(CCCl)CCCl` was tested, and the survivor count (dose: 4.0 mg/kg/injection, schedule: Q01DX Z (ip), vehicle: carboxymethylcellulose (CMC)) was 5 of 6, the survivor count (dose: 8.0 mg/kg/injection, schedule: Q01DX Z (ip), vehicle: carboxymethylcellulose (CMC)) was 5 of 6 and the survivor count (dose: 9.37 mg/kg/injection, schedule: Q01DX Z (ip), vehicle: carboxymethylcellulose (CMC)) was 5 of 6. For the same compound, the survivor count (dose: 18.75 mg/kg/injection, schedule: Q01DX Z (ip), vehicle: carboxymethylcellulose (CMC)) was 3 of 6, the survivor count (dose: 37.5 mg/kg/injection, schedule: Q01DX Z (ip), vehicle: carboxymethylcellulose (CMC)) was 4 of 6 and the survivor count (dose: 75.0 mg/kg/injection, schedule: Q01DX Z (ip), vehicle: carboxymethylcellulose (CMC)) was 3 of 6.
In the case of `O=C(Nc1ccc(C2=NCCN2)cc1)c1ccc(C(=O)Nc2ccc(C3=NCCN3)cc2)c([N+](=O)[O-])c1`, the T/C (dose: 12.5 mg/kg/injection, schedule: Q01DX Z (ip), vehicle: saline) is reported as 133 % of control.
`C[C@]12C=CC(=O)C=C1CC[C@@H]1[C@@H]2C(=O)C[C@@]2(C)[C@H]1CC[C@]2(O)C(=O)CO` was tested, and the survivor count (dose: 12.5 mg/kg/injection, schedule: Q01DX010 (sc), vehicle: steroid suspending solution) was 6 of 6, the survivor count (dose: 50.0 mg/kg/injection, schedule: Q01DX010 (sc), vehicle: steroid suspending solution) was 6 of 6 and the survivor count (dose: 100.0 mg/kg/injection, schedule: Q01DX010 (sc), vehicle: steroid suspending solution) was 6 of 6. For the same compound, the survivor count (dose: 200.0 mg/kg/injection, schedule: Q01DX010 (sc), vehicle: steroid suspending solution) was 5 of 6.
In the case of `C[C@@H]1C[C@@H]([C@H](O)CC2CC(=O)NC(=O)C2)C(=O)[C@@H](C)C1`, the survivor count (dose: 10.0 mg/kg/injection, schedule: Q01DX010 (ip), vehicle: saline) is reported as 6 of 6, the T/C [4] is reported as 140 % of control and the survivor count [4] is reported as 5 of 6. For the same compound, the survivor count [1] was 6 of 6, the T/C [5] was 86, 89, 114 % of control and the survivor count [5] was 6 of 6. The survivor count (dose: 30.0 mg/kg/injection, schedule: Q01DX Z (ip), vehicle: carboxymethylcellulose (CMC)) was 6 of 6, the T/C [2] was 101 and 114 % of control and the survivor count [2] was 6 of 6. The survivor count [3] was 0 of 6 and 6 of 6 and the survivor count (dose: 200.0 mg/kg/injection, schedule: Q01DX Z (ip), vehicle: other) was 0 of 6 and 6 of 6.
In the case of `C[C@]12CCC(=O)C=C1CC[C@@H]1[C@@H]2C(=O)C[C@@]2(C)[C@H]1CC[C@]2(O)C(=O)CO`, the survivor count (dose: 100.0 mg/kg/injection, schedule: Q01DX Z (sc), vehicle: steroid suspending solution) is reported as 7 of 7, the survivor count (dose: 125.0 mg/kg/injection, schedule: Q01DX Z (sc), vehicle: steroid suspending solution) is reported as 6 of 6 and the survivor count (dose: 200.0 mg/kg/injection, schedule: Q01DX Z (sc), vehicle: steroid suspending solution) is reported as 6 of 6 and 7 of 7. For the same compound, the survivor count (dose: 250.0 mg/kg/injection, schedule: Q01DX Z (sc), vehicle: steroid suspending solution) was 6 of 6, the survivor count (dose: 400.0 mg/kg/injection, schedule: Q01DX Z (sc), vehicle: steroid suspending solution) was 6 of 6 and 7 of 7 and the survivor count (dose: 500.0 mg/kg/injection, schedule: Q01DX Z (sc), vehicle: steroid suspending solution) was 6 of 6.
For `O=C(Nc1ccc(C2=NCCN2)cc1)c1ccc(C(=O)Nc2ccc(C3=NCCN3)cc2)cc1`, the T/C (dose: 40.0 mg/kg/injection, schedule: Q01DX Z (ip), vehicle: methylcellulose (MC)) was 144 % of control.
`CCc1nc(N)nc(N)c1-c1ccc(Cl)cc1` was tested, and the survivor count (dose: 72.0 mg/kg/injection, schedule: Q01DX Z (ip), vehicle: carboxymethylcellulose (CMC)) was 7 of 7 and the survivor count (dose: 144.0 mg/kg/injection, schedule: Q01DX Z (ip), vehicle: carboxymethylcellulose (CMC)) was 0 of 7.
For `Nc1nc(N)c2nc(CNc3ccc(C(=O)NC(CCC(=O)O)C(=O)O)cc3)cnc2n1` (stereo not given), the survivor count (dose: 0.05 mg/kg/injection, schedule: Q01DX010 (ip), vehicle: other) was 6 of 6 and the survivor count (dose: 0.4 mg/kg/injection, schedule: Q01DX010 (ip), vehicle: other) was 6 of 6.
`C=CC(CN1CC1)OC(C)=O` (stereo not given) was tested, and the T/C (dose: 4.0 mg/kg/injection, schedule: Q01DX010 (ip), vehicle: saline) was 128 % of control, the T/C [6] was 132 % of control and the survivor count (dose: 16.0 mg/kg/injection, schedule: Q01DX010 (ip), vehicle: saline) was 5 of 6.
In the case of `CN(Cc1cnc2nc(N)nc(N)c2n1)c1ccc(C(=O)N[C@@H](CCC(=O)O)C(=O)O)cc1`, the T/C (dose: 0.5 mg/kg/injection, schedule: Q01DX Z (ip), vehicle: other) is reported as 93, 99, 102, 106, 109, 120 % of control, the T/C [7] is reported as 91, 98, 104, 108 [5 of 6 alive], 109, 111, 113, 121 % of control [5 of 6 alive] and the survivor count [7] is reported as 6 of 6. For the same compound, the T/C [8] was 94 and 100 % of control, the survivor count [8] was 6 of 6 and the survivor count (dose: 3.0 mg/kg/injection, schedule: Q01DX010 (ip), vehicle: other) was 6 of 6. For the same compound, the survivor count (dose: 3.0 mg/kg/injection, schedule: Q01DX Z (ip), vehicle: alkali diluted with saline) was 7 of 7.
In the case of `C[C@]12CC[C@H](OC3OC(CO)C(O)C(O)C3O)C[C@H]1CC[C@@H]1[C@@H]2CC[C@]2(C)[C@@H](C3=CCOC3=O)CC[C@]12O` (stereo not given in full), the survivor count (dose: 0.25 mg/kg/injection, schedule: Q01DX Z (ip), vehicle: saline) is reported as 4 of 6, the survivor count (dose: 0.5 mg/kg/injection, schedule: Q01DX Z (ip), vehicle: saline) is reported as 0 of 6 and the survivor count (dose: 1.0 mg/kg/injection, schedule: Q01DX Z (ip), vehicle: saline) is reported as 0 of 6. For the same compound, the survivor count (dose: 2.0 mg/kg/injection, schedule: Q01DX Z (ip), vehicle: saline) was 6 of 6 and the survivor count (dose: 4.0 mg/kg/injection, schedule: Q01DX Z (ip), vehicle: saline) was 5 of 6.
`CCN(CC)c1ccc2cc3ccc(=[N+](CC)CC)cc-3oc2c1` was tested, and the survivor count [6] was 6 of 6.
For `CC[C@]1(O)C[C@H]2CN(CCc3c([nH]c4ccccc34)[C@@](C(=O)OC)(c3cc4c(cc3OC)N(C=O)[C@H]3[C@@](O)(C(=O)OC)[C@H](OC(C)=O)[C@]5(CC)C=CCN6CC[C@]43[C@@H]65)C2)C1`, the survivor count (dose: 0.5 mg/kg/injection, schedule: Q01DX010 (ip), vehicle: saline) was 6 of 6.
